The record followed here is patent US20230265162A1.

Results are given in words; binding and its absence hold for the method and conditions named. Some binding calls cover weakened binding; strength is not graded here.

In the assay the target is T1, growth differentiation factor 11 (GDF11) (UniProt O95390).
T1 sequence (looked up): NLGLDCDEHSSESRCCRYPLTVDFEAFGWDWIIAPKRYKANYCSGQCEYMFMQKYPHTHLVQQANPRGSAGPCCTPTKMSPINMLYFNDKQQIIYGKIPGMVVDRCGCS
Nature of the assay: SPR, Biacore 3000; receptor captured by anti-mouse antibody on CM4/CM5 chip, ligand in flow. On the technique in general: SPR reads the build-up and loss of mass on a sensor chip optically.

B1: ActRIIA/b+ variant (SEQ ID NO: 149) (receptor, not shown: a dimerising Fc or GST)
chain: GAILGRSETQECLFYNANWELERTNQTGVERCEGEKDKRLHCYATWRNISGSIEIVAKGCWLDDFNCYDRTDCVETEENPQVYFCCCEGNMCNEKFSYFPEMEVTQPTS
Take B1: the binding entry is “binds”.
